No constants are given. Whether binding was seen depends on the method and setting. In cells and extracts the contact can be indirect. A result given as binding can be weak or reduced; the word gives no strength.
Target: pUL21-GFP (WT) (herpes simplex virus 1 (HSV-1)) (UniProt F8RG07)
Test: co-IP; HEK293T transfected with pUL21-GFP, point mutants or GFP alone, infected at 24 h with ΔpUL21 HSV-1 (MOI = 5), lysed at 16 hpi; GFP-Trap beads; lysis buffer 10 mM Tris pH 7.5, 150 mM NaCl, 0.5 mM EDTA, 0.5% NP-40; immunoblot

Sequences of proteins named here, by UniProt entry; tags and fusion partners are left off. A change or cut given only in a name is not applied to a line headed by its entry.
UniProt F8RG07: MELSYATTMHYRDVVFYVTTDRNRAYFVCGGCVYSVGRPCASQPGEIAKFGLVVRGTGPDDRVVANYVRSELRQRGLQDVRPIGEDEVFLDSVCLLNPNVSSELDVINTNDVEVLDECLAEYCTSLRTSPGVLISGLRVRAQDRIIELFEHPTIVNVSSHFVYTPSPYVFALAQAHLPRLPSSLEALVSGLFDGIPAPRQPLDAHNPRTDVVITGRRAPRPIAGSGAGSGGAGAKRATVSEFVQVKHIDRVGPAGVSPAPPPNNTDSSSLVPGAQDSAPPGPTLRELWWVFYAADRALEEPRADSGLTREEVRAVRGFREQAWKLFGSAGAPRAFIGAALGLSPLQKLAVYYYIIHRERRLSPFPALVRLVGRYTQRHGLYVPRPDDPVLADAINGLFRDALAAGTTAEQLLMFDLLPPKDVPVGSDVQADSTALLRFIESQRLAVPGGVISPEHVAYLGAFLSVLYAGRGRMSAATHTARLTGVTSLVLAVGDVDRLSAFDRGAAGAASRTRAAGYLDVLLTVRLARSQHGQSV
UniProt Q9Y5P4: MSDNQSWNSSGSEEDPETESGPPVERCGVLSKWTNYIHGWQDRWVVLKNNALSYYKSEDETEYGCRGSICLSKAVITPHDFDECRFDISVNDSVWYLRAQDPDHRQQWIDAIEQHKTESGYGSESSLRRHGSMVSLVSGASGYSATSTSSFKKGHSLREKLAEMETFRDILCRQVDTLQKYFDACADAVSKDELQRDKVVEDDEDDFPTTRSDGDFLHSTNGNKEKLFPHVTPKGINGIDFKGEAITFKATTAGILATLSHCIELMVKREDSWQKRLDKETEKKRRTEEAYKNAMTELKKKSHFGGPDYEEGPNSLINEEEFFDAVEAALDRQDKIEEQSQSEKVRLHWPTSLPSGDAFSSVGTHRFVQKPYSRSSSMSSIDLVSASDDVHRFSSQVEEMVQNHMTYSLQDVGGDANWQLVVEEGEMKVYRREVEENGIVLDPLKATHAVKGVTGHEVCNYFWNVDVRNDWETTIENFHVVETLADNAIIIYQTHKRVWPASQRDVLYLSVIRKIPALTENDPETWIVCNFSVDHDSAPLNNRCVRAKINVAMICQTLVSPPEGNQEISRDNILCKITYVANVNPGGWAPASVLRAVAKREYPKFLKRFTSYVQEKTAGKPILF

Q: How did the binding turn out when “CERT (endogenous, HEK293T) (from UniProt Q9Y5P4)” was run?
A: binds
